Reference: the supplement of paper PMC12823440, “Inhibitors supercharge kinase turnover through native proteolytic circuits” (Nature, 2025)
Counter-ions that a name gives are not always drawn. The list shows a part of the results. Hit calls seldom repeat between salt and free forms of one compound.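 Kinases were expressed as nanoluciferase fusions in K562 cells and luminescence was read every 4 h between 2 and 18 h as percent of control, DMSO set to 100% and a positive control to 0%. A time point counts as decreased when the signal drops significantly (2 sigma). The hit call is the authors' own, does not follow from the count of time points alone, and its rule is not shown.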

The chains behind the UniProt entries cited, without tags or fusion partners. Where a name states a change or a piece, a line headed by the entry shows the natural chain unless it says otherwise.
UniProt P07949, whole entry, looked up: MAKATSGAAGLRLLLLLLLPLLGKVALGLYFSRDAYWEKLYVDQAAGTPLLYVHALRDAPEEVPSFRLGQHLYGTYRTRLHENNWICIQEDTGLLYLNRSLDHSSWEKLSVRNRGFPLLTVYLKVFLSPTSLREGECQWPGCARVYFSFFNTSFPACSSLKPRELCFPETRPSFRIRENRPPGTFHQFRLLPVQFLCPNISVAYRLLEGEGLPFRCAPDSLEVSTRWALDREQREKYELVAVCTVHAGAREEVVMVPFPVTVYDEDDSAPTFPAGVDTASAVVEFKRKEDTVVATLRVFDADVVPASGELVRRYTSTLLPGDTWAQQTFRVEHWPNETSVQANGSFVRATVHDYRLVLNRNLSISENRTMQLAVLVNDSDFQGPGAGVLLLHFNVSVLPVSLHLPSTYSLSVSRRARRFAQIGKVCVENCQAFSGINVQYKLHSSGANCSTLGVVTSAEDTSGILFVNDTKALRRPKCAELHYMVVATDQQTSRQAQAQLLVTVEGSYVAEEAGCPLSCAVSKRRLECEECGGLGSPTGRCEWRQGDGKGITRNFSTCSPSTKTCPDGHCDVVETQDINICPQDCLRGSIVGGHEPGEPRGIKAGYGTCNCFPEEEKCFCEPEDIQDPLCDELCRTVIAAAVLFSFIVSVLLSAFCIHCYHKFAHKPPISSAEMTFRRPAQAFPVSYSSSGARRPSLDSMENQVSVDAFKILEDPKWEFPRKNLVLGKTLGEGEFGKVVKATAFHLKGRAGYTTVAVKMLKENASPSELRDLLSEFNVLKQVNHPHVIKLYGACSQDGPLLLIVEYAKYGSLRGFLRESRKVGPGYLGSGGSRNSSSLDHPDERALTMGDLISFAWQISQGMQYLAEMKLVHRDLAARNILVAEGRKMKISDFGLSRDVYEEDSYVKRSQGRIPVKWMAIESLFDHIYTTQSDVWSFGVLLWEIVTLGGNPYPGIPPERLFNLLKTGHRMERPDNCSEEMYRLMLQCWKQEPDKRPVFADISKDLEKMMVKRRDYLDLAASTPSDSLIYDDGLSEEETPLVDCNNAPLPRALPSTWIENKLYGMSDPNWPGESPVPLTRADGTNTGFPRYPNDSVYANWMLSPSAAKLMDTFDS
UniProt Q9BRS2: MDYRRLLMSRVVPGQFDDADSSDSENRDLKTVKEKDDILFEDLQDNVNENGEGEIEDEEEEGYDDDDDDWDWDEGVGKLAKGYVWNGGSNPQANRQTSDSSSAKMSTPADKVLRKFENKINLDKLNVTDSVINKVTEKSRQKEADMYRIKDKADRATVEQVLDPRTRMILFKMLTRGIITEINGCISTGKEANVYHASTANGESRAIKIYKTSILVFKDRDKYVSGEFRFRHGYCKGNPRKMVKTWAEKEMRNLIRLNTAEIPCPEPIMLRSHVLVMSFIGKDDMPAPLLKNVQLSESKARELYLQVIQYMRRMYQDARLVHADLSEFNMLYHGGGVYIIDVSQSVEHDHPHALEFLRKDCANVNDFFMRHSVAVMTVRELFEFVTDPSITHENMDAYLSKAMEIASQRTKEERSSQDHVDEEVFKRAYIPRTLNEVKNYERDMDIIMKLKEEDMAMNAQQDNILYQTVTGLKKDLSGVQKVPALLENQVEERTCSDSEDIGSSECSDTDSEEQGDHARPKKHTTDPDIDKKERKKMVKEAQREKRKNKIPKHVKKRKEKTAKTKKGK
UniProt Q01974, whole entry: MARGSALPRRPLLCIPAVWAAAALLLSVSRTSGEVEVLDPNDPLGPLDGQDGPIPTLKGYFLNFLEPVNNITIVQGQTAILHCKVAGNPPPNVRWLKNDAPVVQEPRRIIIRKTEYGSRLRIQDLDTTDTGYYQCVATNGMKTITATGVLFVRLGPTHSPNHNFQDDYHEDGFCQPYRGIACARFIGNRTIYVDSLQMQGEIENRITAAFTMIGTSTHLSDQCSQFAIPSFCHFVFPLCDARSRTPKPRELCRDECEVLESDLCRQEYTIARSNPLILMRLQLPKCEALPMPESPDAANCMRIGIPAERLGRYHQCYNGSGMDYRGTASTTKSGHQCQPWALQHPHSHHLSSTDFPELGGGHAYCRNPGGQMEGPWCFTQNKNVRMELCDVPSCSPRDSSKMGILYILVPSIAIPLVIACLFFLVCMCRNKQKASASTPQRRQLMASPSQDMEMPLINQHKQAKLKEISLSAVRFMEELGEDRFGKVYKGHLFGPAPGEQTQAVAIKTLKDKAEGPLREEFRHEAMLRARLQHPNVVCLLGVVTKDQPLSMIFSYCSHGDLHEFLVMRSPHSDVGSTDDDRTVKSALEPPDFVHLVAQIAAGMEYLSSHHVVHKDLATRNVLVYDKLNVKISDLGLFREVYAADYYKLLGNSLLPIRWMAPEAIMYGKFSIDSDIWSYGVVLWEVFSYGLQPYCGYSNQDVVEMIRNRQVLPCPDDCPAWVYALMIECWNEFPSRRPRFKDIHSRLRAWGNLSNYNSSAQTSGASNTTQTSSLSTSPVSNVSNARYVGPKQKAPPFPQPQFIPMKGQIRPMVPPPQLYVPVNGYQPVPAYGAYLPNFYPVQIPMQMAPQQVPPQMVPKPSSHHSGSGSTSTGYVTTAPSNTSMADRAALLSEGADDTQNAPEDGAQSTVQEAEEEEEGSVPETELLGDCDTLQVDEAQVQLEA
UniProt Q15418, whole entry: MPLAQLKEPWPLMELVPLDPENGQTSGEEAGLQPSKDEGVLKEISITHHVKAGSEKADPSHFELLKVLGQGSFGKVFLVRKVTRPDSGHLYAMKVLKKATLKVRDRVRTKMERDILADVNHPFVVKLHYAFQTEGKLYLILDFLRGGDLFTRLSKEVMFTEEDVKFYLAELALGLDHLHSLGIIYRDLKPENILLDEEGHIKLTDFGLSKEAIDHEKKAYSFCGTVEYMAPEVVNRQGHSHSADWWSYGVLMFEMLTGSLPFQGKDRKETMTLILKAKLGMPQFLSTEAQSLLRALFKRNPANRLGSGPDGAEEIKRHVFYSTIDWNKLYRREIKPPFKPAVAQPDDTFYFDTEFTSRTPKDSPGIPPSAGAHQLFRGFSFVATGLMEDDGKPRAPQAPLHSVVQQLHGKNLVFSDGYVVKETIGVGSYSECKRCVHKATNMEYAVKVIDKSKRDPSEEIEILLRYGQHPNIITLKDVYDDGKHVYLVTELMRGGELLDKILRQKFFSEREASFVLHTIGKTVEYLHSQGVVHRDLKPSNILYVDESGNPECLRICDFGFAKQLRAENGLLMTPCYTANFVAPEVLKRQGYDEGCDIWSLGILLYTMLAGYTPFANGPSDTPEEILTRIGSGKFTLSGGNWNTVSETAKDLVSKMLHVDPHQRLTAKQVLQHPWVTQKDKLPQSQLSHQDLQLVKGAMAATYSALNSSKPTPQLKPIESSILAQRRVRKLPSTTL
UniProt Q9Y6E0: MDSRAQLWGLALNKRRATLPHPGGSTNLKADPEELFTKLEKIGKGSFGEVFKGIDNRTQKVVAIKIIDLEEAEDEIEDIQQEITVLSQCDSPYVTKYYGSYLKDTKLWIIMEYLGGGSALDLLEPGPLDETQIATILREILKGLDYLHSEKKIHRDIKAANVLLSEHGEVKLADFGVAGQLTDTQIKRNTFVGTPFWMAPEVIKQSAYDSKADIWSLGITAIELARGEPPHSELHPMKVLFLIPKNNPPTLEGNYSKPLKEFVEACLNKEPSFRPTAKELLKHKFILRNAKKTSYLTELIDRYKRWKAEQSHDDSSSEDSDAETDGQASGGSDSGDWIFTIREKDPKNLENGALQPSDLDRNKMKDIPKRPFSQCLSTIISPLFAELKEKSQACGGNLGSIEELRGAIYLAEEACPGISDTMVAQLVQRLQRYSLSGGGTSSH
UniProt Q15208: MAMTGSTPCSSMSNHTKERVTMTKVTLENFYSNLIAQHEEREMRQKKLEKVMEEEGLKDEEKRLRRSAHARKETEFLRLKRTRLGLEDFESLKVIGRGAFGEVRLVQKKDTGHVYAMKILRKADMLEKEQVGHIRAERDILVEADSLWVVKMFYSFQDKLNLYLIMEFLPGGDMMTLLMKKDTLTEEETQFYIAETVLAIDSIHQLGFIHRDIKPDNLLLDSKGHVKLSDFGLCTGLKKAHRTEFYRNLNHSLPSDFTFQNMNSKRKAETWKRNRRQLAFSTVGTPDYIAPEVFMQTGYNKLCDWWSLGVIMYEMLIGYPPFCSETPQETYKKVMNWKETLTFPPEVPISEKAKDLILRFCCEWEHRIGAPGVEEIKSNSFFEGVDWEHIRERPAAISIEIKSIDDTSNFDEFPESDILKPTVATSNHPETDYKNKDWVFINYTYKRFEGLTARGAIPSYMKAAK
UniProt Q6PHR2: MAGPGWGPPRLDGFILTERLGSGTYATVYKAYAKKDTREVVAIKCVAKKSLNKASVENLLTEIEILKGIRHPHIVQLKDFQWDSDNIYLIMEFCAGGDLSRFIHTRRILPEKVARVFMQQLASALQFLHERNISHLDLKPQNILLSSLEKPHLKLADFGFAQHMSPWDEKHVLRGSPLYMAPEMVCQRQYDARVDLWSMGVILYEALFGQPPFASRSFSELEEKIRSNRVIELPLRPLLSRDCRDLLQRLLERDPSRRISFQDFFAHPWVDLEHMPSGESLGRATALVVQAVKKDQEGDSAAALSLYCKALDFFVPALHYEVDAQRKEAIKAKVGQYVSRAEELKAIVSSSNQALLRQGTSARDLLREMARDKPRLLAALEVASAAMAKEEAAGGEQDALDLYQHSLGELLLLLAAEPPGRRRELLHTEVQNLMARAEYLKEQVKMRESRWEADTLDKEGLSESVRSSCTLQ
UniProt P43403: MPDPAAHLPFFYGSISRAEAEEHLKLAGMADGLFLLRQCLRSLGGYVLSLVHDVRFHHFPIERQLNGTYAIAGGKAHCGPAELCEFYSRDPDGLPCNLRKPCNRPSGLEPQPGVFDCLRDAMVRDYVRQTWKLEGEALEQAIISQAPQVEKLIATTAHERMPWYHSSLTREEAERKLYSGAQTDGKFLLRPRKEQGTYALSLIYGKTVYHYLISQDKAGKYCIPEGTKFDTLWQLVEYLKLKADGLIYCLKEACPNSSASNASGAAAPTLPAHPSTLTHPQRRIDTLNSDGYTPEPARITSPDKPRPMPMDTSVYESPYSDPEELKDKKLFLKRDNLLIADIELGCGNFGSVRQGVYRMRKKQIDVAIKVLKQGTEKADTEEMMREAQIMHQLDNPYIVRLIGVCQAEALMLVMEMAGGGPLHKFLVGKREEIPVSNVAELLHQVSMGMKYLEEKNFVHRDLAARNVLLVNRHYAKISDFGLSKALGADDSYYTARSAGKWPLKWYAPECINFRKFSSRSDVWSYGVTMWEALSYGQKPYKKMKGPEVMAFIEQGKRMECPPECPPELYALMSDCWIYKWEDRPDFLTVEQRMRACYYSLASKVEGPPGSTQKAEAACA
UniProt P00519, whole entry: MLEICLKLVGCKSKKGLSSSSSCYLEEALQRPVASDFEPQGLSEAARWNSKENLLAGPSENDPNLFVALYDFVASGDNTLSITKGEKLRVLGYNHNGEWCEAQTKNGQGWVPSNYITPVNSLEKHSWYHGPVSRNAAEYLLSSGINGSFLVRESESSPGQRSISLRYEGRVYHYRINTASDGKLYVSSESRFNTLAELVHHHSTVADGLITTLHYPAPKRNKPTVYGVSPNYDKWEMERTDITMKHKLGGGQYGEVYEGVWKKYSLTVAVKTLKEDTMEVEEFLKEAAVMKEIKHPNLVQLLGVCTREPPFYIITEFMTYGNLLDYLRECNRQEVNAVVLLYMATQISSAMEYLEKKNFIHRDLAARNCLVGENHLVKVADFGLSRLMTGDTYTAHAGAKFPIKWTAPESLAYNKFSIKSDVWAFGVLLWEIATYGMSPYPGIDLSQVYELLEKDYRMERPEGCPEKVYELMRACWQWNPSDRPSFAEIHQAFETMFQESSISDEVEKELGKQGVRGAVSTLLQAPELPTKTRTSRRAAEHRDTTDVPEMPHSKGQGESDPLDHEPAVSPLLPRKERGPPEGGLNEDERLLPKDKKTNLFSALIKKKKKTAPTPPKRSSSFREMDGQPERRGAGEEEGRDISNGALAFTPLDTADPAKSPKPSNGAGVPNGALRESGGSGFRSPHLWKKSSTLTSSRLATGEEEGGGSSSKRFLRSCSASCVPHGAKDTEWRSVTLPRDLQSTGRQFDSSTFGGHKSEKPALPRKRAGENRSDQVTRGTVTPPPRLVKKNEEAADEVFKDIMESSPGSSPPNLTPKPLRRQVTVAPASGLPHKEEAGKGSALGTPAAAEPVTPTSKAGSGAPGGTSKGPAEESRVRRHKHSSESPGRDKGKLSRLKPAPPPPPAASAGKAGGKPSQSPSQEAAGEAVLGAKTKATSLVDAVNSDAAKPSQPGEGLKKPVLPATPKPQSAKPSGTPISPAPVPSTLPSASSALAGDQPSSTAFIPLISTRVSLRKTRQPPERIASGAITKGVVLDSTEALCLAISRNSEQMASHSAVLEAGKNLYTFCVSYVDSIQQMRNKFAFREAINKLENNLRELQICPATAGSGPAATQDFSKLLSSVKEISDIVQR

Assays:
Conditions in all cases: K562; 2-18 h
RET = RET (UniProt P07949); assay: kinase-Nluc reporter destabilization hit call (1 = scored as downregulated) (binary); higher = compound decreases kinase abundance
[1] = target: RET_M918T (clone: RET_mut) (UniProt P07949); assay: as above
RIOK1 = RIOK1 (UniProt Q9BRS2); assay: as above
RIPK1 = RIPK1 (UniProt Q13546); assay: as above
RIPK2 = RIPK2 (UniProt O43353); assay: as above
ROR2 = ROR2 (UniProt Q01974); assay: as above
RPS6KA1 = RPS6KA1 (UniProt Q15418); assay: as above
SPHK1 = SPHK1 (UniProt Q9NYA1); assay: as above
SRC = SRC (UniProt P12931); assay: as above
STK24 = STK24 (UniProt Q9Y6E0); assay: as above
STK38 = STK38 (UniProt Q15208); assay: as above
SYK = SYK (UniProt P43405); assay: as above
TEC = TEC (UniProt P42680); assay: as above
TYK2 = TYK2 (UniProt P29597); assay: as above
ULK3 = ULK3 (UniProt Q6PHR2); assay: as above
YES1 = YES1 (UniProt P07947); assay: as above
ZAK = ZAK (UniProt Q9NYL2); assay: as above
ZAP70 = ZAP70 (UniProt P43403); assay: as above
ABL1 = ABL1 (UniProt P00519); assay: number of time points (of 5) at which kinase-Nluc abundance scored as decreased, DMSO-normalised (count); higher = more persistent destabilization
AKT1 = AKT1 (UniProt P31749); assay: as above

SMILES | kinase-Nluc reporter destabilization hit call (RET) | kinase-Nluc reporter destabilization hit call [1] | kinase-Nluc reporter destabilization hit call (RIOK1) | kinase-Nluc reporter destabilization hit call (RIPK1) | kinase-Nluc reporter destabilization hit call (RIPK2) | kinase-Nluc reporter destabilization hit call (ROR2) | kinase-Nluc reporter destabilization hit call (RPS6KA1) | kinase-Nluc reporter destabilization hit call (SPHK1) | kinase-Nluc reporter destabilization hit call (SRC) | kinase-Nluc reporter destabilization hit call (STK24) | kinase-Nluc reporter destabilization hit call (STK38) | kinase-Nluc reporter destabilization hit call (SYK) | kinase-Nluc reporter destabilization hit call (TEC) | kinase-Nluc reporter destabilization hit call (TYK2) | kinase-Nluc reporter destabilization hit call (ULK3) | kinase-Nluc reporter destabilization hit call (YES1) | kinase-Nluc reporter destabilization hit call (ZAK) | kinase-Nluc reporter destabilization hit call (ZAP70) | number of time points (ABL1) | number of time points (AKT1)
Cc1cc(O)c2c(c1)C(=O)c1cccc(O)c1C2=O [Chrysophanol] (2 µM) | inactive: 0 | inactive: 0 | inactive: 0 | inactive: 0 | inactive: 0 | inactive: 0 | inactive: 0 | inactive: 0 | inactive: 0 | inactive: 0 | inactive: 0 | inactive: 0 | inactive: 0 | inactive: 0 | inactive: 0 | inactive: 0 | inactive: 0 | inactive: 0 | 0 | 0
CCCCCc1ccc(/C=C/[C@H](O)[C@@H](CO)NC)cc1 [SK1-I (hydrochloride)] (10 µM) | inactive: 0 | inactive: 0 | inactive: 0 | inactive: 0 | inactive: 0 | inactive: 0 | inactive: 0 | inactive: 0 | inactive: 0 | inactive: 0 | inactive: 0 | inactive: 0 | inactive: 0 | inactive: 0 | inactive: 0 | inactive: 0 | inactive: 0 | inactive: 0 | 0 | 0
Cc1cc(Nc2cc(N3CCN(C)CC3)nc(Nc3ccc([N+](=O)[O-])cc3)n2)n[nH]1 (2.5 µM) | inactive: 0 | inactive: 0 | inactive: 0 | inactive: 0 | inactive: 0 | inactive: 0 | inactive: 0 | inactive: 0 | inactive: 0 | inactive: 0 | inactive: 0 | inactive: 0 | inactive: 0 | inactive: 0 | inactive: 0 | inactive: 0 | inactive: 0 | inactive: 0 | 2 | 0
Cn1c(CNc2cccc(C(=O)NCc3ccccc3C(F)(F)F)c2)nnc1-c1ccncc1 (10 µM) | inactive: 0 | inactive: 0 | inactive: 0 | inactive: 0 | inactive: 0 | inactive: 0 | inactive: 0 | inactive: 0 | inactive: 0 | inactive: 0 | inactive: 0 | inactive: 0 | inactive: 0 | inactive: 0 | inactive: 0 | inactive: 0 | inactive: 0 | inactive: 0 | 0 | 0
CO[C@H]1C[C@@H]2CC[C@@H](C)[C@@](O)(O2)C(=O)C(=O)N2CCCC[C@H]2C(=O)O[C@H]([C@H](C)C[C@@H]2CC[C@@H](OCCO)[C@H](OC)C2)CC(=O)[C@H](C)/C=C(\C)[C@@H](O)[C@@H](OC)C(=O)[C@H](C)C[C@H](C)/C=C/C=C/C=C/1C [Everolimus] (10 µM) | inactive: 0 | inactive: 0 | inactive: 0 | inactive: 0 | inactive: 0 | inactive: 0 | inactive: 0 | inactive: 0 | inactive: 0 | inactive: 0 | inactive: 0 | inactive: 0 | inactive: 0 | inactive: 0 | inactive: 0 | inactive: 0 | inactive: 0 | inactive: 0 | 0 | 0
Nc1nc(N)c2nc(-c3cccc(O)c3)c(-c3cccc(O)c3)nc2n1 (10 µM) | inactive: 0 | inactive: 0 | inactive: 0 | inactive: 0 | inactive: 0 | inactive: 0 | inactive: 0 | inactive: 0 | inactive: 0 | inactive: 0 | inactive: 0 | inactive: 0 | inactive: 0 | inactive: 0 | inactive: 0 | inactive: 0 | inactive: 0 | inactive: 0 | 0 | 0
Cc1ccc(C)c(OCCn2cc(C(=O)O)c3ccccc32)c1 (10 µM) | inactive: 0 | inactive: 0 | inactive: 0 | inactive: 0 | inactive: 0 | inactive: 0 | inactive: 0 | inactive: 0 | inactive: 0 | inactive: 0 | inactive: 0 | inactive: 0 | inactive: 0 | inactive: 0 | inactive: 0 | inactive: 0 | inactive: 0 | inactive: 0 | 0 | 0
O=C(Nc1cccc(-c2nc(-c3ccc(NC(=O)c4cccnc4)cc3Cl)no2)c1)Nc1ccc(NC(=O)C2CC2)c(C(F)(F)F)c1 (2.5 µM) | inactive: 0 | inactive: 0 | inactive: 0 | inactive: 0 | inactive: 0 | inactive: 0 | inactive: 0 | inactive: 0 | inactive: 0 | inactive: 0 | inactive: 0 | inactive: 0 | inactive: 0 | inactive: 0 | inactive: 0 | inactive: 0 | inactive: 0 | inactive: 0 | 0 | 0
Cc1nc[nH]c1CN1CCN(C(=O)N[C@@H](CC(C)C)C(=O)O)[C@@H](Cc2ccccc2)C1=O (10 µM) | inactive: 0 | inactive: 0 | inactive: 0 | inactive: 0 | inactive: 0 | inactive: 0 | inactive: 0 | inactive: 0 | inactive: 0 | inactive: 0 | inactive: 0 | inactive: 0 | inactive: 0 | inactive: 0 | inactive: 0 | inactive: 0 | inactive: 0 | inactive: 0 | 0 | 0
CC(C)Oc1ccc(F)c(-c2cnc(N)c(C(=O)Nc3cnccc3N3CCC[C@@H](C(=O)O)C3)n2)c1 (2 µM) | inactive: 0 | inactive: 0 | inactive: 0 | inactive: 0 | inactive: 0 | inactive: 0 | inactive: 0 | inactive: 0 | inactive: 0 | inactive: 0 | inactive: 0 | inactive: 0 | inactive: 0 | inactive: 0 | inactive: 0 | inactive: 0 | inactive: 0 | inactive: 0 | 0 | 0
